Test results as given in PubChem BioAssay AID192 (DTP/NCI, 2004).
The list is a part of this screen's results and no random one: it gathers some chemical classes. Other doses and runs of a compound may be missing. T/C is the treated group as % of the vehicle group. Some entries give survivors of the animals treated and no T/C: the source files T/C as zero there, which appears to mark a toxic dose or a test without result, not a measured value. Some doses without a T/C left all or most animals alive at the check, yet need not have been tolerated: the source hardly ever lists a survival T/C far under the control, and the zero likely stands for such cases as well. Survivors were counted at the toxicity check, usually on the fifth day, unless a day is given; later deaths do not show. Schedule codes are those of the source, taken here to give the interval after Q, in days (D) or hours (H), and the number of doses after X. Some entries hold several experiments; the results are listed from low to high. Counts like (3×) count equal records among those shown. For survival time, the PubChem record calls one and a half times the control and up active, and a quarter to a half above the control has no call in these data; cut-offs in other NCI protocols can differ. Some T/C values are followed by the survivors on the day toxicity was checked, most often the fifth; without a count or a note in brackets, all were alive then.

Tested on: BDF1 mice, B16 melanoma ip, median survival T/C
Experiment: NCI In Vivo Anticancer Drug Screen. Data for tumor model B16 Melanoma (intraperitoneal) in B6D2F1 (BDF1) mice
Settings: T/C endpoint: median survival time, higher T/C = longer survival
Protocol: The antitumor activity of compounds was measured in mice bearing transplantable tumors. Survival or tumor size were measured and the results are expressed as the measurement made in the treated group (T) divided by the measurement made in the vehicle treated control group (C). The tumor model used in this assay is B16 Melanoma (intraperitoneal) in B6D2F1 (BDF1) mice

[1] = dose: 100.0 mg/kg/injection, schedule: Q01DX009 (ip), vehicle: Klucel (hydroxypropylcellulose) (HPC)
[2] = dose: 200.0 mg/kg/injection, schedule: Q01DX009 (ip), vehicle: Klucel (hydroxypropylcellulose) (HPC)
[3] = dose: 200.0 mg/kg/injection, schedule: Q01DX009 (ip), vehicle: saline
[4] = dose: 400.0 mg/kg/injection, schedule: Q01DX009 (ip), vehicle: Klucel (hydroxypropylcellulose) (HPC)
[5] = dose: 400.0 mg/kg/injection, schedule: Q01DX009 (ip), vehicle: saline with Tween-80
[6] = dose: 400.0 mg/kg/injection, schedule: Q08DX002 (ip), vehicle: saline
[7] = dose: 800.0 mg/kg/injection, schedule: Q01DX002 (ip), vehicle: Klucel (hydroxypropylcellulose) (HPC)
[8] = dose: 800.0 mg/kg/injection, schedule: Q08DX002 (ip), vehicle: Klucel (hydroxypropylcellulose) (HPC)
[9] = dose: 800.0 mg/kg/injection, schedule: Q08DX002 (ip), vehicle: saline with Tween-80
[10] = dose: 800.0 mg/kg/injection, schedule: Q08DX002 (ip), vehicle: saline

NC(=O)c1[nH]cnc1/N=N\N(CCCl)CCCl
T/C (dose: 10.0 mg/kg/injection, schedule: Q01DX009 (ip), vehicle: water): 110 % of control | T/C (dose: 12.5 mg/kg/injection, schedule: Q01DX009 (ip), vehicle: saline): 107 % of control | T/C (dose: 12.5 mg/kg/injection, schedule: Q01DX009 (ip), vehicle: steroid suspending solution): 121 % of control | T/C (dose: 19.0 mg/kg/injection, schedule: Q01DX009 (ip), vehicle: water): 126 % of control | T/C (dose: 25.0 mg/kg/injection, schedule: Q01DX009 (ip), vehicle: Klucel (hydroxypropylcellulose) (HPC)): 97, 100, 105, 106, 109, 110, 113, 114, 118, 121, 122, 123, 136 % of control | T/C (dose: 25.0 mg/kg/injection, schedule: Q01DX009 (ip), vehicle: saline with Tween-80, evaluated on day 45): 108 % of control | T/C (dose: 25.0 mg/kg/injection, schedule: Q01DX009 (ip), vehicle: saline with Tween-80, evaluated on day 60): 98, 100, 103, 107, 109, 111, 112, 114 % of control (2×) | T/C (dose: 25.0 mg/kg/injection, schedule: Q01DX009 (ip), vehicle: saline): 104, 107, 110, 114, 118, 126, 132 % of control | T/C (dose: 25.0 mg/kg/injection, schedule: Q01DX009 (ip), vehicle: steroid suspending solution): 121 % of control | survivor count (dose: 38.0 mg/kg/injection, schedule: Q01DX009 (ip), vehicle: water): 4 of 6 | T/C (dose: 50.0 mg/kg/injection, schedule: Q01DX009 (ip), vehicle: Klucel (hydroxypropylcellulose) (HPC)): 102, 105, 109, 111, 113, 119 (2×), 120, 121 (2×), 123, 125, 127, 142, 144 % of control | T/C (dose: 50.0 mg/kg/injection, schedule: Q01DX009 (ip), vehicle: saline with Tween-80, evaluated on day 45): 123 % of control [5 of 6 alive] | T/C (dose: 50.0 mg/kg/injection, schedule: Q01DX009 (ip), vehicle: saline with Tween-80, evaluated on day 60): 103, 105, 108, 115, 122, 125, 126, 136, 148 % of control | T/C (dose: 50.0 mg/kg/injection, schedule: Q01DX009 (ip), vehicle: saline): 102, 112, 125, 140, 141, 147 % of control (2×) | T/C (dose: 50.0 mg/kg/injection, schedule: Q01DX009 (ip), vehicle: steroid suspending solution): 147 % of control | T/C (dose: 75.0 mg/kg/injection, schedule: Q01DX009 (ip), vehicle: water): 121 % of control [5 of 6 alive] | T/C (dose: 77.8 mg/kg/injection, schedule: Q01DX009 (ip), vehicle: DMSO): 119 % of control | T/C (dose: 100.0 mg/kg/injection, schedule: Q01DX002 (ip), vehicle: Klucel (hydroxypropylcellulose) (HPC)): 95, 121, 123, 136 % of control | T/C [1]: 115 (2×), 122, 129, 130, 132, 133 (2×), 134, 142, 150, 192, 200, 215 % of control | survivor count [1]: 6 of 6 | T/C (dose: 100.0 mg/kg/injection, schedule: Q01DX009 (ip), vehicle: saline with Tween-80, evaluated on day 45): 164 % of control | T/C (dose: 100.0 mg/kg/injection, schedule: Q01DX009 (ip), vehicle: saline with Tween-80, evaluated on day 60): 125 [5 of 6 alive], 130, 152, 165 [5 of 6 alive], 168, 170, 178, 182, 186 % of control | T/C (dose: 100.0 mg/kg/injection, schedule: Q01DX009 (ip), vehicle: saline): 91, 120, 126, 135, 138, 150, 168 % of control | T/C (dose: 100.0 mg/kg/injection, schedule: Q01DX009 (ip), vehicle: steroid suspending solution): 202 % of control | T/C (dose: 100.0 mg/kg/injection, schedule: Q08DX002 (ip), vehicle: Klucel (hydroxypropylcellulose) (HPC)): 102, 109, 111, 114, 121 (2×), 135, 136, 140, 143, 144 % of control | T/C (dose: 100.0 mg/kg/injection, schedule: Q08DX002 (ip), vehicle: saline with Tween-80, evaluated on day 45): 95 and 127 % of control (2×) | T/C (dose: 100.0 mg/kg/injection, schedule: Q08DX002 (ip), vehicle: saline with Tween-80, evaluated on day 60): 92, 96, 105, 108, 110, 120, 121, 122, 123 % of control | T/C (dose: 100.0 mg/kg/injection, schedule: Q08DX002 (ip), vehicle: saline): 93, 94, 97, 111, 141 % of control | T/C (dose: 130.0 mg/kg/injection, schedule: Q01DX009 (ip), vehicle: DMSO): 156 % of control | T/C (dose: 150.0 mg/kg/injection, schedule: Q01DX009 (ip), vehicle: water): 94 % of control | T/C (dose: 200.0 mg/kg/injection, schedule: Q01DX002 (ip), vehicle: Klucel (hydroxypropylcellulose) (HPC)): 105, 126, 163 [5 of 6 alive], 192 % of control | T/C [2]: 88, 95, 100, 107, 111 (2×), 115, 121, 126, 130, 145, 169, 186 % of control | survivor count [2]: 6 of 6 | T/C (dose: 200.0 mg/kg/injection, schedule: Q01DX009 (ip), vehicle: saline with Tween-80, evaluated on day 45): 97 % of control | T/C (dose: 200.0 mg/kg/injection, schedule: Q01DX009 (ip), vehicle: saline with Tween-80, evaluated on day 60): 87, 97, 110, 125, 135 % of control | survivor count (dose: 200.0 mg/kg/injection, schedule: Q01DX009 (ip), vehicle: saline with Tween-80): 6 of 6 | T/C [3]: 110, 129, 169, 210 % of control | survivor count [3]: 6 of 6 | T/C (dose: 200.0 mg/kg/injection, schedule: Q01DX009 (ip), vehicle: steroid suspending solution): 236 % of control | T/C (dose: 200.0 mg/kg/injection, schedule: Q08DX002 (ip), vehicle: Klucel (hydroxypropylcellulose) (HPC)): 113, 122, 127 [5 of 6 alive], 142 (2×), 158, 164, 175, 178 (2×), 200 % of control | T/C (dose: 200.0 mg/kg/injection, schedule: Q08DX002 (ip), vehicle: saline with Tween-80, evaluated on day 45): 120, 132, 135 % of control | T/C (dose: 200.0 mg/kg/injection, schedule: Q08DX002 (ip), vehicle: saline with Tween-80, evaluated on day 60): 98, 105, 120 (2×), 135, 152, 163, 171, 191 % of control | T/C (dose: 200.0 mg/kg/injection, schedule: Q08DX002 (ip), vehicle: saline): 87, 97, 97 [5 of 6 alive], 108, 158 % of control | survivor count (dose: 216.0 mg/kg/injection, schedule: Q01DX009 (ip), vehicle: DMSO): 10 of 10 | survivor count (dose: 360.0 mg/kg/injection, schedule: Q01DX009 (ip), vehicle: DMSO): 10 of 10 | T/C (dose: 400.0 mg/kg/injection, schedule: Q01DX002 (ip), vehicle: Klucel (hydroxypropylcellulose) (HPC)): 111, 145, 147 [5 of 6 alive], 242 % of control | T/C [4]: 86, 95, 100 (2×), 133 % of control | survivor count [4]: 1 of 6, 5 of 6, 6 of 6 | T/C [5]: 100, 100 [5 of 6 alive], 102 % of control | survivor count [5]: 5 of 6, 5 of 5, 6 of 6 (2×) | survivor count (dose: 400.0 mg/kg/injection, schedule: Q01DX009 (ip), vehicle: saline): 5 of 6 and 6 of 6 | survivor count (dose: 400.0 mg/kg/injection, schedule: Q01DX009 (ip), vehicle: steroid suspending solution): 6 of 6 | T/C (dose: 400.0 mg/kg/injection, schedule: Q08DX002 (ip), vehicle: Klucel (hydroxypropylcellulose) (HPC)): 104, 114, 119, 120, 126 [5 of 6 alive], 127, 145 [5 of 6 alive], 165, 180, 197, 306 % of control | T/C (dose: 400.0 mg/kg/injection, schedule: Q08DX002 (ip), vehicle: saline with Tween-80, evaluated on day 45): 115, 140, 165 % of control | T/C (dose: 400.0 mg/kg/injection, schedule: Q08DX002 (ip), vehicle: saline with Tween-80, evaluated on day 60): 112, 122, 142, 143, 157 (2×), 170, 182, 184 % of control | T/C [6]: 100 (2×), 144, 145 % of control | survivor count [6]: 6 of 6 | T/C [7]: 88, 92, 105 % of control | survivor count [7]: 6 of 6 | T/C [8]: 100, 104, 113, 116, 117, 125, 172 % of control [5 of 6 alive] | survivor count [8]: 6 of 6 | T/C [9]: 91, 95, 123, 188 % of control | survivor count [9]: 2 of 6 and 6 of 6 (2×) | T/C [10]: 100 % of control | survivor count [10]: 0 of 6, 4 of 6, 6 of 6
